Experiments:
[1] = Bonding to a polycarboxylic acid: reaction with adipic acid in refluxing xylenes, HPLC
[2] = Two-layer method, water-based polyurethane coating, UV depth profiling
[3] = QUV accelerated weathering (UVB-313 bulbs) of acrylic urethane clear coat; details: for DOI / Gloss / b: 0 h QUV
Excerpt: Compounds D and E were formulated in clear coatings which were applied to panels for accelerated weathering testing as follows. Compound D or E (1% or 2% based on total resin solids) and/or SANDUVOR® S-3055 HALS-type stabilizer (1% based on total resin solids) were predissolved in the solvent mixture (to a 5-10% solids level) and added to the clear acrylic urethane formulation given in Table 3 below. Components I and II were mixed just before use. Cold roll steel panels measuring 4″×12″ and precoated with an electro-coat primer ED505A and a white polyester acrylic melamine base-coat #542AB839, obtained from ACT Laboratories, Inc. (Hillsdale, Mich.) were coated with the clear coating formulations of Table 3. The draw-down technique, using WC-60 WireCators™ (Leneta Co., Hohokus, N.J.), was used to apply the clear coat to the pre-coated panels. The clear coats were allowed to flash for 10 min at ambient temperature and cured for 30 min at 135° C.
Accelerated weathering was carried out on the clear coating formulations using a QUV device equipped with UVB-313 fluorescent bulbs. The coated panels were subjected to accelerated weathering under alternate cycles of (i) UV light at 70° C. for 8 hours and (ii) condensation with no UV light at 50° C. for 4 hours (ASTM G53, GM cycle). Specular properties such as gloss ([…], ASTMD523) and distinctness of image (“DOI”) (Dorigon Meter D47R-6FT, Hunter Associate Laboratory) and yellowing (“Delta b”) were measured as a function of weathering time.
The results for QUEV exposure using Compounds D or E as the sole stabilizer are presented below in Table 4. The results for QUV exposure using Compounds D or E in combination with S-3055 HALS are presented below in Table 5.
Example 6 was repeated, except that Compound G was used in place of Compounds D and E. The results for QUV exposure using Compound G as the sole stabilizer, and in combinations with a HALS, are presented below in Table 6.
The clear coating composition of Example 6 was used to evaluate the performance of Compounds E and F, alone at 2%, and in combination with a HALS, SANDUVOR® 3055 (1% of Compound E plus 1% of S-3055; and 1% of Compound G plus 1% of S-3055). These coating compositions were weathered by QUV according to the method of Example 6.

[4] = Two-layer approach, polyurethane coating on steel, UV depth profiling; details: 2% in top layer
[5] = 1% Comp. G + 1% HALS, 501 h QUV
[6] = 1% Comp. G + 1% HALS, 1004 h QUV
[7] = 1% Comp. G + 1% HALS, 1515 h QUV
[8] = 1% Comp. G + 1% HALS, 1998 h QUV
[9] = 1% Comp. G + 1% HALS, 2499 h QUV
[10] = 1% Comp. G + 1% HALS, 3003 h QUV

For `CCCCN(CCO)C(=O)COc1ccc(-c2nc(-c3ccc(C)cc3C)nc(-c3ccc(C)cc3C)n2)c(O)c1` [Compound E, 4-[4,6-Bis(2′4′-dimethylphenyl)-1,3,5-triazin-2-yl]-3-hydroxyphenoxyacetic acid, N-(n-butyl)-N-(2-hydroxyethyl)amide], the “Reaction with adipic acid (HPLC)” value ([1]; reflux in xylenes 1.5 h) was “completely reacted”, the “Amount migrated during cure from top paint layer into lower layer” value [2] was “insignificant” and the “UV absorbance in the bottom layer” value ([2]; interface at 50 μm) was “No UV absorbance is observed”.

Compound `C=C(C)c1cccc(C(C)(C)NC(=O)OCCOc2ccc(-c3nc(-c4ccc(C)cc4C)nc(-c4ccc(C)cc4C)n3)c(O)c2)c1` [Compound G, 2-{4-[4,6-bis(2′4′-dimethylphenyl)-1,3,5-triazin-2-yl]-3-hydroxyphenoxy}-eth-1-yl N-(meta-isopropenyl-α,α-dimethylbenyzl) carbamate] has a DOI ([3]; 1% Comp. G + 1% HALS) of 85.6, a Gloss ([3]; 1% Comp. G + 1% HALS) of 94.4 and a b ([3]; 1% Comp. G + 1% HALS) of 4.06. The “% DOI Retention” value [3, 5] was 100.4%, the “% Gloss Retention” value [3, 5] was 102.0% and the Delta b [3, 5] was 1.09. The “% DOI Retention” value [3, 6] was 100.5%, the “% Gloss Retention” value [3, 6] was 102.8% and the Delta b [3, 6] was 1.76. For the same compound, the “% DOI Retention” value [3, 7] was 101.3%, the “% Gloss Retention” value [3, 7] was 100.4% and the Delta b [3, 7] was 2.52. The “% DOI Retention” value [3, 8] was 95.4%, the “% Gloss Retention” value [3, 8] was 99.5% and the Delta b [3, 8] was 2.66. For the same compound, the “% DOI Retention” value [3, 9] was 101.9%, the “% Gloss Retention” value [3, 9] was 105.4% and the Delta b [3, 9] was 3.68. For the same compound, the “% DOI Retention” value [3, 10] was 100.4%, the “% Gloss Retention” value [3, 10] was 95.3% and the Delta b [3, 10] was 3.78. For the same compound, the DOI ([3]; 2% Comp. G alone) was 86.9, the Gloss ([3]; 2% Comp. G alone) was 95.2 and the b ([3]; 2% Comp. G alone) was 4.29. The “% DOI Retention” value ([3]; 2% Comp. G alone, 501 h QUV) was 100.6%, the “% Gloss Retention” value ([3]; 2% Comp. G alone, 501 h QUV) was 100.9% and the Delta b ([3]; 2% Comp. G alone, 501 h QUV) was 2.38. For the same compound, the “% DOI Retention” value ([3]; 2% Comp. G alone, 1004 h QUV) was 100.5%, the “% Gloss Retention” value ([3]; 2% Comp. G alone, 1004 h QUV) was 101.9% and the Delta b ([3]; 2% Comp. G alone, 1004 h QUV) was 3.13. The “% DOI Retention” value ([3]; 2% Comp. G alone, 1515 h QUV) was 100.5%, the “% Gloss Retention” value ([3]; 2% Comp. G alone, 1515 h QUV) was 100.6% and the Delta b ([3]; 2% Comp. G alone, 1515 h QUV) was 4.67. The “% DOI Retention” value ([3]; 2% Comp. G alone, 1998 h QUV) was 96.3%, the “% Gloss Retention” value ([3]; 2% Comp. G alone, 1998 h QUV) was 92.0% and the Delta b ([3]; 2% Comp. G alone, 1998 h QUV) was 5.31. For the same compound, the “% DOI Retention” value ([3]; 2% Comp. G alone, 2499 h QUV) was 64.3%, the “% Gloss Retention” value ([3]; 2% Comp. G alone, 2499 h QUV) was 75.6% and the Delta b ([3]; 2% Comp. G alone, 2499 h QUV) was 5.79. For the same compound, the “% DOI Retention” value ([3]; 2% Comp. G alone, 3003 h QUV) was 30.3%, the “% Gloss Retention” value ([3]; 2% Comp. G alone, 3003 h QUV) was 51.8% and the Delta b ([3]; 2% Comp. G alone, 3003 h QUV) was 6.12.

In the case of `Cc1ccc(-c2nc(-c3ccc(C)cc3C)nc(-c3ccc(OCCCCCCOC(N)=O)cc3O)n2)c(C)c1` [Compound I, 2,4-bis(2,4-dimethylphenyl)-6-[2-hydroxy-4-(6-carbamoyloxyhexyloxy)phenyl]-1,3-5-triazine], the “Compound present in bottom layer of two-layer coating” value ([4]; cure 30 min at 80° C.) is reported as “completely absent” and the “Compound present in bottom layer of two-layer coating” value ([4]; cure 30 min at 120° C.) is reported as 5%.

In the case of `Cc1ccc(-c2nc(-c3ccc(C)cc3C)nc(-c3ccc(OCCCCCCO)cc3O)n2)c(C)c1` [HTT, 2,4-bis(2,4-dimethylphenyl)-6-[2-hydroxy-4-(6-hydroxyhexyloxy)phenyl]-1,3-5-triazine], the “Conversion to diester (Compound M) plus monoester” value ([1]; 73 hr at reflux, HPLC area percent at 290 nm) is reported as 14% and the “Reaction with adipic acid (HPLC)” value ([1]; reflux in xylenes 2.5 h) is reported as “unreacted”.
